From publication PMC4405695
These are yes or no findings as the source states them, for the method shown. For some of these results: In cells and extracts the contact can be indirect. Some binding calls cover weakened binding; strength is not graded here. For some of these results: Where a sequence is shown, tags or fusion partners need not be part of it.

Sequences of proteins named here, by UniProt entry; tags and fusion partners are left off. A change or cut given only in a name is not applied to a line headed by its entry.
UniProt P20339: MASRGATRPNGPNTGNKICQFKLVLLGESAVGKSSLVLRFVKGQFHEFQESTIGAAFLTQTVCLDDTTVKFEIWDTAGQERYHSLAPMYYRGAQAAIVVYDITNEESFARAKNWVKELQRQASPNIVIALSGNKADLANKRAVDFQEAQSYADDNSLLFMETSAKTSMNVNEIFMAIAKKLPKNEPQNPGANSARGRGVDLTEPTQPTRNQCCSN
UniProt P20340: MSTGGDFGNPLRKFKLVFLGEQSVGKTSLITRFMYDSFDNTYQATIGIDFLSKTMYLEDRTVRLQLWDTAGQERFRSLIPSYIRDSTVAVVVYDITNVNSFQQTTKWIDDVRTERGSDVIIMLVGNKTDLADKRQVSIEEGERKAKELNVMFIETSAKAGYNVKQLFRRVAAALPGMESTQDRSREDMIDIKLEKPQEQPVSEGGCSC
UniProt P28738: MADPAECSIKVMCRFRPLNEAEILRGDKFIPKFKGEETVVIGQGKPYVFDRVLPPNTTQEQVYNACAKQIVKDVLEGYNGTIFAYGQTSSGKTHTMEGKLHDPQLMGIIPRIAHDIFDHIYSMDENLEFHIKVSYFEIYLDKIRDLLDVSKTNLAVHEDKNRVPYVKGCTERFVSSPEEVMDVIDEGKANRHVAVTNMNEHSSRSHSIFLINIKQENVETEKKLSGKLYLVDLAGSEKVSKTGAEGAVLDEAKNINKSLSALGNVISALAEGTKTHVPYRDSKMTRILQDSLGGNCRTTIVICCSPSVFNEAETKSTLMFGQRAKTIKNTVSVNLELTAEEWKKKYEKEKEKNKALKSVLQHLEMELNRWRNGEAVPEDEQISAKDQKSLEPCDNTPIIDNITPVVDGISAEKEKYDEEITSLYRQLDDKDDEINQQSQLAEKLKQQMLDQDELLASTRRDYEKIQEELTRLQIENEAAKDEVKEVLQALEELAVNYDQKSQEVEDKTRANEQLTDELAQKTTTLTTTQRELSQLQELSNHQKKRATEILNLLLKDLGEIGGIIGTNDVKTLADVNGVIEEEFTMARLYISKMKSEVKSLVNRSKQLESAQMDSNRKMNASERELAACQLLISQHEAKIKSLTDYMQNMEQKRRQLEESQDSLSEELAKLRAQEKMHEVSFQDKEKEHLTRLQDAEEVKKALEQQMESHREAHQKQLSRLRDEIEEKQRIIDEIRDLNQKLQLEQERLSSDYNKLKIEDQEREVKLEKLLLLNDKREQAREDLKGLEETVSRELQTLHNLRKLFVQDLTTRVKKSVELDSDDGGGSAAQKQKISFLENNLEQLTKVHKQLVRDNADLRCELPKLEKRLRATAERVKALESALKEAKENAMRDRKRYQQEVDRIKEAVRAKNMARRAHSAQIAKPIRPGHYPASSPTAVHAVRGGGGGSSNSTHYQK

Legend:
[1] = target: GST-Rab5A Q79L (UniProt P20339); experiment: pull-down; purified KIF1C-355-His (45 nM-0.56 µM) with GTPγS-loaded GST-Rabs (0.2-2.5 μM) collected on glutathione Sepharose; immunoblot; one panel with AMP-PNP or ADP; both purified
[2] = target: GST-Rab6A Q72L (UniProt P20340); experiment: as above
[3] = target: GST-Rab6A Q72L (UniProt P20340); experiment: pull-down; concentration dependence: purified KIF1C-355-His (78.8 nM) with GTPγS-loaded GST-Rab6A Q72L immobilized on glutathione Sepharose; quantitative fluorescent antibody immunoblot; both purified
[4] = target: T1, CFP-KIF1C-350 (human) (UniProt O43896); experiment: co-IP; HEK293 cells transfected 48 hr; lysis in 50 mM Hepes pH 7.4, 150 mM NaCl, 1% CHAPS; llama GFP-binding protein on Sepharose; immunoblot with anti-myc or anti-Rab6A
T1 sequence: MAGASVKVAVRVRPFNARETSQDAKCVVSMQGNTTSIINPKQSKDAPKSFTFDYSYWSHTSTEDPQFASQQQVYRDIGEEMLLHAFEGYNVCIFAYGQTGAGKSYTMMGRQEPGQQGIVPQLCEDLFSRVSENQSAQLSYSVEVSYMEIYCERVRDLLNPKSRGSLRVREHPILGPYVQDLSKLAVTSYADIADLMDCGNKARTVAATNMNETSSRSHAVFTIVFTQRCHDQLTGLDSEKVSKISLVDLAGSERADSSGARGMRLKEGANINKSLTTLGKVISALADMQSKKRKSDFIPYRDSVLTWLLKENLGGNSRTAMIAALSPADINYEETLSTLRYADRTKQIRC

[5] = target: T2, KIF1C-355-His (human | murine) (UniProt O43896+P28738); experiment: co-sedimentation; KIF1C-355-His (160 nM) with increasing His-Rab6A Q72L, then 2.1 µM microtubules, 2.6 mM ADP, 0.35 mM GTPγS; 35% sucrose cushion; fluorescent antibody immunoblot of pellets; both purified
T2 sequence: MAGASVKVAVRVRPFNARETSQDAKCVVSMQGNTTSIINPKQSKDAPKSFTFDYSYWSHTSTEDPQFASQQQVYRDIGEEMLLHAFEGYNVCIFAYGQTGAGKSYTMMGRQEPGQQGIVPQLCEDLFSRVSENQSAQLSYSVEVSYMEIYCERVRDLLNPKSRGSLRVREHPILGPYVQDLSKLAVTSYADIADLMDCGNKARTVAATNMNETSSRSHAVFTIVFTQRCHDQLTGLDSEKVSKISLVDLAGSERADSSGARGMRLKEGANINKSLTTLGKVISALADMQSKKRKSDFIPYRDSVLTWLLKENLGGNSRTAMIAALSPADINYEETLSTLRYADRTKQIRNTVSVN

[6] = target: T3, Full-length His-KIF1C (human) (UniProt O43896); experiment: single-molecule TIRF microscopy; antibody-labelled full-length KIF1C (9-10 nM) on rhodamine-labelled microtubules (7.5 µg/ml) held on coverslips, ± GTPγS-loaded Rab6A (15 µM); both purified
T3 sequence: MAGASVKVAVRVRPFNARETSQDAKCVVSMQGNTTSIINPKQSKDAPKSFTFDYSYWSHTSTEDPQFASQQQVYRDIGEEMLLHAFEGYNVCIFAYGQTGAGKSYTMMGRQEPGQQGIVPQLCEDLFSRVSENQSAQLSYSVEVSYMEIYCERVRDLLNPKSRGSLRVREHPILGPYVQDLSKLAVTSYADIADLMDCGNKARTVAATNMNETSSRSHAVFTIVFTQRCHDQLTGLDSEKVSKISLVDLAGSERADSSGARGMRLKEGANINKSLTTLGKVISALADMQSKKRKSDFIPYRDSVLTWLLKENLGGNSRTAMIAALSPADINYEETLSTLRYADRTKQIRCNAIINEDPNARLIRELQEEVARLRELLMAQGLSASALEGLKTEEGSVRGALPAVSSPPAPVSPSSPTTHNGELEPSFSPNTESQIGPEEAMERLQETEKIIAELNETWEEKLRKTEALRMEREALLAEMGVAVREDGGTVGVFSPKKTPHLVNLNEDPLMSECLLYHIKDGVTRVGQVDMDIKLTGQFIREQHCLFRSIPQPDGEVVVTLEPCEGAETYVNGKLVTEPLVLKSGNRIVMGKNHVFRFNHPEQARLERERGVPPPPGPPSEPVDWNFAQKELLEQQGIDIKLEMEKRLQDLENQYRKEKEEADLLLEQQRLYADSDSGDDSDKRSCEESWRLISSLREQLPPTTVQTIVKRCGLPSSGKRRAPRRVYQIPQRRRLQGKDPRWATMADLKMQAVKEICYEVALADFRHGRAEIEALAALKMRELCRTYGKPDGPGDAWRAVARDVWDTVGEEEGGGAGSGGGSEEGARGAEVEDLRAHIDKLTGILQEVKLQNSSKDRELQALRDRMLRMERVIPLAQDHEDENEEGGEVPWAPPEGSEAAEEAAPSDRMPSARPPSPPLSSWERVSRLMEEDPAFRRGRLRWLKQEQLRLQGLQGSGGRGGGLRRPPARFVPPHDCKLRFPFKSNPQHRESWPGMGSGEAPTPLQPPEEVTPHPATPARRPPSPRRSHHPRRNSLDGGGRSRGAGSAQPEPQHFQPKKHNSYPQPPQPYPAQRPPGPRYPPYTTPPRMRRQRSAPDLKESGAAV

[7] = target: T4, GST-KIF1C CBD (human) (UniProt O43896); experiment: pull-down; His-Rab preloaded with 35S-GTPγS (0.5-1 μM) with GST-KIF1C constructs (15 μM) on glutathione Sepharose, 1 hr room temperature, 20 mM HEPES pH 7.4, 150 mM KCl, 4 mM MgCl2, 0.1% BSA, 0.2% Triton X-100; scintillation counting; both purified
T4 sequence: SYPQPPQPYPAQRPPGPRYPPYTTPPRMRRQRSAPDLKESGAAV

KIF1C-355-His (from UniProt O43896 1-349; P28738 329-334) (domain or fragment)
binding [1]: no binding (tested: 0.56 µM KIF1C-355-His, 0.2 μM GST-Rab)
binding [2]: binds
binding [3]: binds

endogenous Rab6A (from UniProt P20340 1-208)
binding [4]: binds

His-Rab6A Q72L (from UniProt P20340 1-208)
binding [5]: binds

His-Rab6A (from UniProt P20340 1-208)
binding [6]: binds
binding [7]: binds
